Laboratory results from article PMC4027163.
Construct, isoform or probe ends are uncertain for at least one entry.

Tested on: PvuRts1I, N-terminal His tag
Assay: EMSA
Conditions: 5 mM Ca2+; none; EMSA: 20 mM Tris/HCl pH 8.0, 150 mM NaCl, 2 uM 32-mer duplex in 10 ul; recombinant protein; protein details: N-terminal MGHHHHHHEF; label: 3'-Cy5 (EMSA)

TCTGCCCACAATGCCGGTGAATCTAGGGTACG (double strand) [32-mer C-C oligoduplex]
binding result: binds
